Here are results for 78 compounds from PMC12040169 (PLOS Biology, 2025).

The list shows a part of the results.

For the experiment, the system named is T1, CTL2-GFP (C. trachomatis L2/434/Bu, GFP-expressing).
T1 construct: L2/434/Bu, GFP-expressing
More on the design: species or system HeLa; Intracellular C. trachomatis growth in HeLa cells, bulk GFP fluorescence relative to DMSO. The note with it: bulk GFP, single well; 28.5 h, 10 µM; inhibitor.
Consider `COCCNC(=O)CN(C)c1cnc2ccccc2n1` [CBK305265], for which the “% of control remaining” value is given as 94.5457%. To `Cc1ccc(S(=O)(=O)Nc2ccc(C3(c4ccc(NS(=O)(=O)c5ccc(C)cc5)cc4)c4ccccc4C(=O)c4ccccc43)cc2)cc1` [CBK261155] belongs 88.2822%. To `CCOC(=O)CS(=O)(=O)Cc1cc(Cl)nc(Cl)c1` [CBK005544] belongs 103.78%; to `COc1ccc(CNC(=O)C2CCCN(c3cnc4ccccc4n3)C2)cc1` (stereo not drawn) [CBK287772], 119.929%; to `O=C(O)c1ccccc1C(=O)N1CCN(c2ccc([N+](=O)[O-])cc2)CC1` [CBK287181], 111.61%. To `COc1cc(-c2ccc3c(c2)COC2(CCCNC2)O3)cc(OC)c1OC` (stereo not drawn) [CBK092299] belongs 120.239%; to `CCc1cc(Br)ccc1S(=O)(=O)NCc1cccc(F)c1` [CBK045114], 112.647%; to `c1ccc2c(CNCCN3CCOCC3)cccc2c1` [CBK278156C], 145.077%. Consider `O=C(Cc1ccccn1)N1CCCc2ccccc21` [CBK200343], for which the “% of control remaining” value came to 103.573%. To `O=C(CCc1ccccc1F)NC1CCc2nccn2C1` (stereo not drawn) [CBK306124] belongs 116.337%; to `Brc1ccc(-n2cc(-c3ccccc3)c3c(NCc4ccccn4)ncnc32)cc1` [CBK266427], 169.532%. For `COc1cnc(/C=C\c2ccccc2)c(NC(=O)c2cc(C)oc2C)n1` [CBK145222], the “% of control remaining” value was 87.0284%. Next, `CCOc1ccc(CNc2sc3c(c2C(=O)Nc2ccc(OC)cc2)CCC3)cc1` [CBK294473]: 157.097%. To `COc1cccc(-c2coc3cc4oc(=O)c(CC(=O)O)c(C)c4cc23)c1` [CBK269520] belongs 162.044%; to `Cc1ccc(C(=O)NCC(=O)O)cc1S(=O)(=O)N1CCOCC1` [CBK264534], 120.673%; to `O=C(O)CCN1CCCC2(CCN(C(=O)c3ccoc3)C2)C1` (stereo not drawn) [CBK137139], 106.66%. On to `Cc1cc2cc(CNCCCN3CCCC3=O)c(=O)[nH]c2cc1C` [CBK282296], for which the “% of control remaining” value turned out to be 126.073%.

For the compound `Cc1ccc(S(=O)(=O)N(CC(=O)O)c2ccc(Cl)cc2)cc1` [CBK263767], the “% of control remaining” value came out at 96.6662%. In the case of `CCN(CC)C(=O)c1ccccc1NS(=O)(=O)c1cc(Br)ccc1OC` [CBK045422], the “% of control remaining” value turned out to be 124.078%.

As for `Cc1ccc(S(=O)(=O)Nc2cc(Sc3nc(C)cc(C)n3)c(O)c3ccccc23)cc1` [CBK263313], the “% of control remaining” value was found to be 102.925%. To `O=C(O)CNCc1ccc(-c2ccc(Cl)cc2)o1` [CBK287258] belongs 104.447%; to `CCOCCNC(=O)c1coc(COc2ccc3sc(C)nc3c2)n1` [CBK306805], 123.579%; to `O=C(O)COc1cccc(NC(=O)c2cc3ccccc3o2)c1` [CBK270071], 123.029%. Turning to `O=C(CN1CCCCC1)Nc1ccc(S(=O)(=O)N2CCOCC2)cc1` [CBK265577], the “% of control remaining” value turned out to be 119.33%. To `COc1cc(OC)cc(C(=O)OCc2ccc(F)cc2)c1` [CBK267996] belongs 130.013%; to `O=C(OCc1ccc(S(=O)(=O)N2CCOCC2)cc1)c1cc(-c2ccccc2)nc2ccccc12` [CBK267411], 118.624%. Next, `CCc1nc2ccccc2n1CC(=O)N(CCC#N)Cc1cccnc1` [CBK304892]: 144.171%.

As for `COc1ccc2[nH]c(-c3cncn3CCCC(C)(C)CO)cc2c1` [CBK281778], the “% of control remaining” value is 93.8146%. To `CCc1nccn1CCC(=O)NC1CCN(Cc2ccncc2)CC1` [CBK306813] belongs 106.588%; to `CC(=O)N1CCc2c([nH]c3c(C)cccc23)C12CCN(C/C=C\c1ccccc1)C2` (stereo not drawn) [CBK040414], 98.5855%; to `O=C(CN1CCN(c2ccccn2)CC1)N1c2ccccc2Sc2ccc(C(F)(F)F)cc21` [CBK268835G], 94.2405%. On to `c1ccc(COC(c2ccccc2)c2nc3ccccc3n2Cc2ccccc2)cc1` (stereo not drawn) [CBK267311], for which the “% of control remaining” value is listed as 84.6281%. Next, `COc1ccc2c(c1)C1(CC(=O)N(C)C1=O)C(=O)N2C` (stereo not drawn) [CBK075146]: 95.1211%; `COc1ccc(-c2noc([C@@H]3Cc4[nH]cnc4CN3C(=O)CCC(=O)O)n2)cc1` [CBK288967]: 104.691%; `COCCNc1nc(-c2ccccc2OC)ccc1C(=O)N1CCN(C)CC1` [CBK105950]: 125.22%. Next, `Cc1csc(-c2cn3ccnc3c(N3CCN(c4ccccn4)CC3)n2)c1` [CBK066530]: 124.995%; `O=S(=O)(Nc1cc(O[C@@H]2CCNC2)c2occc2c1)c1cc(F)c(Br)cc1F` [CBK073943C]: 97.3065%. To `Nc1nc(SCc2cccc([N+](=O)[O-])c2)n[nH]1` [CBK268688] belongs 97.1193%; to `CC(NC(=O)C1CCN(CCOc2ccccc2)CC1)c1ccccc1` (stereo not drawn) [CBK148610], 106.588%; to `CN(CC1CCCN(C(=O)Nc2cccc(Cl)c2)C1)C(=O)OC(C)(C)C` (stereo not drawn) [CBK305597], 117.853%. For `CCn1c(CN2CCOCC2)nnc1SCC(=O)Nc1cc(C)cc(C)c1` [CBK270258], the “% of control remaining” value is 105.413%.

In the case of `O=C(NC1CC1)[C@H]1C=CCN1C(=O)c1cccs1` [CBK284324], the “% of control remaining” value is recorded as 117.007%.

Take `Cc1ccc(-c2ncc3c(=O)[nH]c(=O)n(C)c3n2)cc1` [CBK288553]: the “% of control remaining” value is 115.624%. Next, `O=C1CCCN1CC(=O)N1CCCC(c2cc3ccccc3cn2)C1` (stereo not drawn) [CBK285091]: 79.4091%. For the compound `CCc1cc(CNC(=O)c2cc(C)nc3c(C)cccc23)on1` [CBK281554], the “% of control remaining” value is reported as 80.0756%.

Turning to `O=C(CSc1nc(-c2ccco2)cc(C(F)(F)F)n1)NCc1ccco1` [CBK266091], the “% of control remaining” value stood at 96.9958%. Next, `CSCc1nnc(SCCC(=O)N2CCN(c3ccc(F)cc3)CC2)o1` [CBK240463]: 130.831%; `NS(=O)(=O)c1cnccc1NCCc1ccccc1` [CBK058003]: 91.1573%; `CC(C)Cn1c(SCC(=O)Nc2ccc(OC(F)F)cc2)nc(O)cc1=O` [CBK296679]: 135.411%.

On to `CCN(CCC(C)Sc1ccccc1)c1cncc(Oc2ccc(S(C)(=O)=O)cc2)n1` (stereo not drawn) [CBK137186T], for which the “% of control remaining” value is 88.5813%. Next, `O=C(CC1S/C(=N/N=C/c2cn(Cc3ccccc3)c3ccccc23)NC1=O)Nc1ccccc1` (stereo not drawn) [CBK264529]: 100%. To `CCOC(=O)CN1C(c2ccccc2O)Nc2ccc(Br)cc2C1c1ccccc1` (stereo not drawn) [CBK263130] belongs 88.6186%; to `O=C(O)COc1ccc(NC(=O)Cc2ccc([N+](=O)[O-])cc2)cc1` [CBK268573], 166.492%. For the compound `O=C(c1cccnc1)N1CCCC(c2cc3ccccc3cn2)C1` (stereo not drawn) [CBK285154], the “% of control remaining” value was determined as 138.499%. Next, `CCNc1cc(-c2ccco2)ncn1` [CBK090879]: 155.214%. To `Cc1cc(C)nc(SCCCn2c(=O)[nH]c3ccccc32)n1` [CBK264485] belongs 97.5391%. Next, `O=C(Cc1cn2ccsc2n1)Nc1ccc(N2CCCCC2)cc1` [CBK306185]: 172.542%; `Cc1cc(=O)c(O)c(CN2CCC(C(=O)O)CC2)o1` [CBK286843]: 125.223%; `O=S(=O)(NCC(O)Cn1c2ccc(Cl)cc2c2cc(Cl)ccc21)c1ccccc1` (stereo not drawn) [CBK262542]: 108.382%. As for `Cc1c(C(=O)NCCOc2ccc(-c3ccccc3)cc2)sc2nc[nH]c(=O)c12` [CBK285805], the “% of control remaining” value came out at 132.627%. To `Cc1ccc(C(=O)Nc2c(C(=O)Nc3cccnc3)cnn2-c2ccccc2)cc1` [CBK263056] belongs 89.3123%; to `COc1cccc(CNc2nccnc2-c2ccccc2F)c1OC` [CBK037993], 98.0934%. Next, `O=C(Nc1ccc(O)cc1)c1ccc2c(c1)C(=O)N(c1cccc(N3C(=O)c4ccc(C(=O)Nc5ccc(O)cc5)cc4C3=O)n1)C2=O` [CBK261334]: 113.527%. To `C[C@@H](c1ccccc1)n1c(=O)[nH]c2ncc(-c3cccc4ccccc34)nc21` [CBK064710] belongs 144.521%; to `CC(=O)NCCc1nc2cc(NC(=O)c3cccc([N+](=O)[O-])c3)ccc2n1C` [CBK268478], 115.264%. Turning to `COC(=O)c1ccccc1NC(=O)CNC(=O)c1ccc(Cl)cc1Cl` [CBK267860], the “% of control remaining” value is listed as 79.3786%.

Consider `Cc1c(Cl)ccc2c(C(=O)NCCCn3cc(Br)cn3)cc(-c3ccncc3)nc12` [CBK267731], for which the “% of control remaining” value came out at 110.553%. Next, `N#C/C(=C\c1ccc(-c2ccc(C(=O)O)c(O)c2)o1)c1nc2ccccc2[nH]1` [CBK262121]: 100%. To `COC(=O)c1sc(N2CCCC2)c(S(=O)(=O)C(C)C)c1N` [CBK009463] belongs 100%; to `CNc1nc(C(C)(C)C)cs1` [CBK025373], 118.365%. To `CC(Sc1nc2ccccc2[nH]1)c1nc2ccccc2[nH]1` (stereo not drawn) [CBK266502] belongs 112.531%.

As to `O=C(COC(=O)c1ccc2c(c1)C(=O)N(c1ccc(Oc3ccccc3)cc1)C2=O)c1ccc(Br)cc1` [CBK261607], the “% of control remaining” value is 97.1741%.

On to `Cc1ccc(C2=CCN(CC(=O)N3CCc4ccccc43)CC2)o1` [CBK283918], for which the “% of control remaining” value is recorded as 136.903%. Next, `C=CCn1c(Cc2csc(NC(=O)c3cc(S(=O)(=O)NC)ccc3C)n2)n[nH]c1=S` [CBK297903]: 127.534%; `CN(C(=O)c1ccccc1N)c1ccccc1` [CBK086716]: 118.896%; `Cc1c(S(=O)(=O)Nc2ccc(-c3ccc(F)cc3)cc2)cnn1C` [CBK281418]: 72.7118%. Next, `CC(=O)N1CCc2sccc2C1c1ccc(NC(=O)c2cccc(F)c2)cc1` (stereo not drawn) [CBK286466]: 104.538%; `CCN(Cc1ccc(C#N)cc1F)C(=O)NC(C)c1nncn1C` (stereo not drawn) [CBK305888]: 108.406%.
